The results in this text go back to PMC4299599, “Quantification of cytosolic interactions identifies Ede1 oligomers as key organizers of endocytosis” (Molecular Systems Biology, 2014).

The chains behind the UniProt entries cited, without tags or fusion partners.
UniProt Q12446: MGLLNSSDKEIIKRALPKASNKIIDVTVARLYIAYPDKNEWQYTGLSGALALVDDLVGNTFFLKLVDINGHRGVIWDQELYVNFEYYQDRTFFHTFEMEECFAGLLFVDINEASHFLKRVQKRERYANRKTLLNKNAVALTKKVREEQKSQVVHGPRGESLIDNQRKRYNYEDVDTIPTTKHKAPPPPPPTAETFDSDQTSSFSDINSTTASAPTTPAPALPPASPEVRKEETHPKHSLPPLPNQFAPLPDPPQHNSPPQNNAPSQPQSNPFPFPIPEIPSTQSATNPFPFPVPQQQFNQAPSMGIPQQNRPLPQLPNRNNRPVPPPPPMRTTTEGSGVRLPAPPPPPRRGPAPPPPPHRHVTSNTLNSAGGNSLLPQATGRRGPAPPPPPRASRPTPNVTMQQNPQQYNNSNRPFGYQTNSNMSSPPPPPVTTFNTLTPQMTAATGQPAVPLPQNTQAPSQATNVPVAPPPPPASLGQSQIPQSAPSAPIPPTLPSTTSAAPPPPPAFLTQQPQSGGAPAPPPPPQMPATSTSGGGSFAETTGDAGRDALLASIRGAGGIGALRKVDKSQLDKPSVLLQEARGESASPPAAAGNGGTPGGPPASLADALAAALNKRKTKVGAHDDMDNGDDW

In experiment [1] the target is T1, Bbc1 (S. cerevisiae, UniProt P47068 1-1157).
T1 construct: Bbc1, S. cerevisiae; also called Bbc1-3myeGFP; Bbc1-3mCherry; source: chromosomally tagged at the endogenous locus, in the cytoplasm of living S. cerevisiae cells
T1 sequence (looked up): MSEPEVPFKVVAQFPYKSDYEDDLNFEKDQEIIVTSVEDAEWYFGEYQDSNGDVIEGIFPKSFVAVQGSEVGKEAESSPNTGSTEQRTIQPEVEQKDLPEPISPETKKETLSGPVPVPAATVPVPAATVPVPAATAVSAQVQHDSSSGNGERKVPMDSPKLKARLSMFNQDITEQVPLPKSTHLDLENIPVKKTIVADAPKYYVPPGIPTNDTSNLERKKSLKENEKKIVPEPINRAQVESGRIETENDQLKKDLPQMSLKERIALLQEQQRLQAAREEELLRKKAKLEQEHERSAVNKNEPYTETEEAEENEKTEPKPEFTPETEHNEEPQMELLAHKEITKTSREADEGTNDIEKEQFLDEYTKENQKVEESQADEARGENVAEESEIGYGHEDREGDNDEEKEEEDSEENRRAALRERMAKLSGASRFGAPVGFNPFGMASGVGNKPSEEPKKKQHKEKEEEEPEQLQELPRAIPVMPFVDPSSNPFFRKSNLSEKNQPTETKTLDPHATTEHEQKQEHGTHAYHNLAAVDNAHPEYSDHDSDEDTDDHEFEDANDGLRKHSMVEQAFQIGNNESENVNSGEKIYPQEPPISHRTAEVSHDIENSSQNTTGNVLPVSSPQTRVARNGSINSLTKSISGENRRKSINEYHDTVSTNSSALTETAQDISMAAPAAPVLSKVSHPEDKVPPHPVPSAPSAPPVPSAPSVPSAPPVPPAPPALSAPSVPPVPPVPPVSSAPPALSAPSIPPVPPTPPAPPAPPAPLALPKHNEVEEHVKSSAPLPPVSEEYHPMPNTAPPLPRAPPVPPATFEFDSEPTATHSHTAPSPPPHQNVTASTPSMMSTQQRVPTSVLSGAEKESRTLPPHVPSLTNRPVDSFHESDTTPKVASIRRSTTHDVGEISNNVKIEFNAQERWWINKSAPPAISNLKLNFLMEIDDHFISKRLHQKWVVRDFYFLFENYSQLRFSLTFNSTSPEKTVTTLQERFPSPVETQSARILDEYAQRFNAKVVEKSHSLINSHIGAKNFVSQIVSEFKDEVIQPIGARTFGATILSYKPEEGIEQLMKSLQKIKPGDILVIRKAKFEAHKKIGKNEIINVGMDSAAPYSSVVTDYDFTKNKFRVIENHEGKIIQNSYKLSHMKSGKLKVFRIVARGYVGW
Briefly: fluorescence cross-correlation spectroscopy (FCCS); living yeast cells, observation volume in the cytoplasm; one protein tagged with (3)myeGFP/eGFP and the other with 3mCherry in the same strain; apparent (effective) KD; interactions up to ~1 μM detectable.

Experiment [2] deals with Las17 (S. cerevisiae) (UniProt Q12446). The experiment in a line: condition: detection range of FCCS: apparent KD up to ~1 μM; fluorescence cross-correlation spectroscopy (FCCS); self-interaction: living diploid yeast cells with one allele fused to (3)myeGFP and one to (3)mCherry, cytoplasm; apparent (effective) KD, to be taken as the upper limit since complexes of one colour are not seen.

The target in experiment [3] is T2, Sla2 (S. cerevisiae, UniProt P33338 1-968).
T2 construct: Sla2, S. cerevisiae; also called Sla2-3myeGFP; Sla2-3mCherry; source: chromosomally tagged at the endogenous locus, in the cytoplasm of living S. cerevisiae cells
T2 sequence (looked up): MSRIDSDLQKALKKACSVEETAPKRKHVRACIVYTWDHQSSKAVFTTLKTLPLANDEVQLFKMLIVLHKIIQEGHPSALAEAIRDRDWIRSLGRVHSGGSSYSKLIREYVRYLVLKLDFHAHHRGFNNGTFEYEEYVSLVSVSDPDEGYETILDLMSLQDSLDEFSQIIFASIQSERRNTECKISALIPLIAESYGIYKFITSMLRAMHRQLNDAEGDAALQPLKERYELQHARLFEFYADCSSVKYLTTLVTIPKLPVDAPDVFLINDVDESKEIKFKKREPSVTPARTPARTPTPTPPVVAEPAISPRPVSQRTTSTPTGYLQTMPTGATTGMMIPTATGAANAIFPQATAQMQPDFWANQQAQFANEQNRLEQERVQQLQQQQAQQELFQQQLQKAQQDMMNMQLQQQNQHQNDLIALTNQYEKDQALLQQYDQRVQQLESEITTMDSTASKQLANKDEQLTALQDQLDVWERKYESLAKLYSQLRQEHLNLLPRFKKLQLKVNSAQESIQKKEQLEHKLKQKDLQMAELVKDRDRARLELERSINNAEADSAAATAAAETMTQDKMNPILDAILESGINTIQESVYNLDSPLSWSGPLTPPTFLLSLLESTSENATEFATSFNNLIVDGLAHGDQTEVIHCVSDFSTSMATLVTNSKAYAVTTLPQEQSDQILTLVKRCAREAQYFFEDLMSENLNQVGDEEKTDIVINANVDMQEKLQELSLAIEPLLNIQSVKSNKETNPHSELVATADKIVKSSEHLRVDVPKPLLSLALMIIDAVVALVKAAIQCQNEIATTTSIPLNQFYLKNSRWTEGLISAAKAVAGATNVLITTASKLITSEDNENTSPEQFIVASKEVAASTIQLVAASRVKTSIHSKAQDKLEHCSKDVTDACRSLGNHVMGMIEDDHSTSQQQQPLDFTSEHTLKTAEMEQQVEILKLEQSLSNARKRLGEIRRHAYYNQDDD
The experiment in a line: condition: 1000 nM (only Kdeff-values < 1000 nM are shown); fluorescence cross-correlation spectroscopy (FCCS); in the cytoplasm of living yeast cells; first-named protein green (3myeGFP or 1myeGFP; eGFP for Don1), second red (3mCherry); self-interaction in diploid strains with one allele of each colour; apparent or effective KD (Kdeff) from single-cell measurements; only Kdeff values < 1000 nM are shown; values for self-interactions are upper limits.

In experiment [4] the target is Las17 (S. cerevisiae) (UniProt Q12446). Described as above.
Experiment [5] has as its target T3, Rvs161 (S. cerevisiae) (UniProt P25343).
T3 sequence: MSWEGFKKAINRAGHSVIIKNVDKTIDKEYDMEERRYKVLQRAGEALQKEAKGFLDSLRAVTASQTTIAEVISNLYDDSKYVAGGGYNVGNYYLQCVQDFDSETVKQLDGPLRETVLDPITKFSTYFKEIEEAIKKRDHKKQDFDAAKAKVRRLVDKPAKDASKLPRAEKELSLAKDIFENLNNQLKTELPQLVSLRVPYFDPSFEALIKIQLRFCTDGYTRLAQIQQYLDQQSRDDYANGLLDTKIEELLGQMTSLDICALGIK
The description is as above.

In experiment [6] the target is T4, Sla1 (S. cerevisiae), P32790.
T4 chain: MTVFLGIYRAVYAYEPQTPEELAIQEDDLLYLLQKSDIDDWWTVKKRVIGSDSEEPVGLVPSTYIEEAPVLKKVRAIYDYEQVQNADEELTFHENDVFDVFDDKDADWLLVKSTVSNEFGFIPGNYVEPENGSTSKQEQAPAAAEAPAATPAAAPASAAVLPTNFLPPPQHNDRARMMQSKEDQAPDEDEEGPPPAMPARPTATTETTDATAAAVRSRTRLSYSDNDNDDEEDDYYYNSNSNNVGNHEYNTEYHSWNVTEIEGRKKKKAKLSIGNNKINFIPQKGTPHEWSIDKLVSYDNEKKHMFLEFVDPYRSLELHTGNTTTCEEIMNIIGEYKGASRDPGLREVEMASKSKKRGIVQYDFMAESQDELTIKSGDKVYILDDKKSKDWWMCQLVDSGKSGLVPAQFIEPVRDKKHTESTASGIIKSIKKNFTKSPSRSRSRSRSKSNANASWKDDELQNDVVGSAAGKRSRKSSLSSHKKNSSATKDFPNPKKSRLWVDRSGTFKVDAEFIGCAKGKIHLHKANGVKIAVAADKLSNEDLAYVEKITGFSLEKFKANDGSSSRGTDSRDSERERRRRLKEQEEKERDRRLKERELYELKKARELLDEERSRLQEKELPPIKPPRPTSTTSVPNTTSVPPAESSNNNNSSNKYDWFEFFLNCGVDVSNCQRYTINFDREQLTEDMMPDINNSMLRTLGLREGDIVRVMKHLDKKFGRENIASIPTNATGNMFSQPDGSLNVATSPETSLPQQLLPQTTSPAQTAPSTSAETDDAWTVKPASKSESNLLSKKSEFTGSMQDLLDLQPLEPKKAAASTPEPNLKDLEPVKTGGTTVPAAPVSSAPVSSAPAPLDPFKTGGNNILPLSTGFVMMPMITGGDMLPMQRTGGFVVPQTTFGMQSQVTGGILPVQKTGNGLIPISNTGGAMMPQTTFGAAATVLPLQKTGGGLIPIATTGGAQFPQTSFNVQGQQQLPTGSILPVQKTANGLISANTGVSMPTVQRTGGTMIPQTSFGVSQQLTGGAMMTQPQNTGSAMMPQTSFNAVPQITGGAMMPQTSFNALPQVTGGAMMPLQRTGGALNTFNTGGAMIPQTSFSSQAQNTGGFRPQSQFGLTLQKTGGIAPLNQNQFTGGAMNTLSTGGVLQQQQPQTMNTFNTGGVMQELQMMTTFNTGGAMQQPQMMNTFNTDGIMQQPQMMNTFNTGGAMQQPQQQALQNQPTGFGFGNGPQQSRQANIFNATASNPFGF
Briefly: condition: detection range of FCCS: apparent KD up to ~1 μM; fluorescence cross-correlation spectroscopy (FCCS); self-interaction: living diploid yeast cells with one allele fused to (3)myeGFP and one to (3)mCherry, cytoplasm; apparent (effective) KD, to be taken as the upper limit since complexes of one colour are not seen. Conditions: remark: other sources report otherwise.

Experiment [7] shares this target. The experiment in a line: condition: 1000 nM (only Kdeff-values < 1000 nM are shown); fluorescence cross-correlation spectroscopy (FCCS); in the cytoplasm of living yeast cells; first-named protein green (3myeGFP or 1myeGFP; eGFP for Don1), second red (3mCherry); self-interaction in diploid strains with one allele of each colour; apparent or effective KD (Kdeff) from single-cell measurements; only Kdeff values < 1000 nM are shown; values for …. Conditions: remark: other sources report otherwise.

No constants are given. Whether binding was seen depends on the method and setting. Some results given as binding are weak or reduced against the parent protein; the word gives no strength.

Regarding Las17 (from UniProt Q12446 1-633), the binding result in experiment [1] was “binds”; in experiment [2] it was “no binding”; in experiment [3], “no binding”; in experiment [4], “no binding”; in experiment [5], “no binding”.

B1: Sla1, P32790 1-1244 (protein)
chain: MTVFLGIYRAVYAYEPQTPEELAIQEDDLLYLLQKSDIDDWWTVKKRVIGSDSEEPVGLVPSTYIEEAPVLKKVRAIYDYEQVQNADEELTFHENDVFDVFDDKDADWLLVKSTVSNEFGFIPGNYVEPENGSTSKQEQAPAAAEAPAATPAAAPASAAVLPTNFLPPPQHNDRARMMQSKEDQAPDEDEEGPPPAMPARPTATTETTDATAAAVRSRTRLSYSDNDNDDEEDDYYYNSNSNNVGNHEYNTEYHSWNVTEIEGRKKKKAKLSIGNNKINFIPQKGTPHEWSIDKLVSYDNEKKHMFLEFVDPYRSLELHTGNTTTCEEIMNIIGEYKGASRDPGLREVEMASKSKKRGIVQYDFMAESQDELTIKSGDKVYILDDKKSKDWWMCQLVDSGKSGLVPAQFIEPVRDKKHTESTASGIIKSIKKNFTKSPSRSRSRSRSKSNANASWKDDELQNDVVGSAAGKRSRKSSLSSHKKNSSATKDFPNPKKSRLWVDRSGTFKVDAEFIGCAKGKIHLHKANGVKIAVAADKLSNEDLAYVEKITGFSLEKFKANDGSSSRGTDSRDSERERRRRLKEQEEKERDRRLKERELYELKKARELLDEERSRLQEKELPPIKPPRPTSTTSVPNTTSVPPAESSNNNNSSNKYDWFEFFLNCGVDVSNCQRYTINFDREQLTEDMMPDINNSMLRTLGLREGDIVRVMKHLDKKFGRENIASIPTNATGNMFSQPDGSLNVATSPETSLPQQLLPQTTSPAQTAPSTSAETDDAWTVKPASKSESNLLSKKSEFTGSMQDLLDLQPLEPKKAAASTPEPNLKDLEPVKTGGTTVPAAPVSSAPVSSAPAPLDPFKTGGNNILPLSTGFVMMPMITGGDMLPMQRTGGFVVPQTTFGMQSQVTGGILPVQKTGNGLIPISNTGGAMMPQTTFGAAATVLPLQKTGGGLIPIATTGGAQFPQTSFNVQGQQQLPTGSILPVQKTANGLISANTGVSMPTVQRTGGTMIPQTSFGVSQQLTGGAMMTQPQNTGSAMMPQTSFNAVPQITGGAMMPQTSFNALPQVTGGAMMPLQRTGGALNTFNTGGAMIPQTSFSSQAQNTGGFRPQSQFGLTLQKTGGIAPLNQNQFTGGAMNTLSTGGVLQQQQPQTMNTFNTGGVMQELQMMTTFNTGGAMQQPQMMNTFNTDGIMQQPQMMNTFNTGGAMQQPQQQALQNQPTGFGFGNGPQQSRQANIFNATASNPFGF
Consider B1, for which the binding result in experiment [6] and in experiment [7] was “no binding” throughout.
